Results are given in words; binding and its absence hold for the method and conditions named. Binding calls can cover weak binding; strength is not graded here.
Molecular target: T1, mature GDF8 (growth/differentiation factor 8, myostatin), unbound mature ligand (UniProt O14793)
T1 sequence: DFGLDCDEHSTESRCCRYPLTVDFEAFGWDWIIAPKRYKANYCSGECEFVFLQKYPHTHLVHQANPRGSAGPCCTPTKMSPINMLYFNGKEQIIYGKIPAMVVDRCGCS
Experiment: SEC

| Substance | binding |
| --- | --- |
| human GDF8 prodomain (residues 24-262) 4xCtoS, I53E (from UniProt O14793) (domain or fragment) | no binding |
| human GDF8 prodomain (residues 24-262) 4xCtoS, I56A (from UniProt O14793) (domain or fragment) | binds |

Source: article doi:10.1101/155614
